Measured values: article PMC9681887
Results are given in words; binding and its absence hold for the method and conditions named. Binding seen in cells or lysates may run through a third protein. Here binding means that the protein was enriched with, or labelled near, the bait; the list need not be complete.

Sequences of proteins named here, by UniProt entry; tags and fusion partners are left off. A change or cut given only in a name is not applied to a line headed by its entry.
UniProt P06804: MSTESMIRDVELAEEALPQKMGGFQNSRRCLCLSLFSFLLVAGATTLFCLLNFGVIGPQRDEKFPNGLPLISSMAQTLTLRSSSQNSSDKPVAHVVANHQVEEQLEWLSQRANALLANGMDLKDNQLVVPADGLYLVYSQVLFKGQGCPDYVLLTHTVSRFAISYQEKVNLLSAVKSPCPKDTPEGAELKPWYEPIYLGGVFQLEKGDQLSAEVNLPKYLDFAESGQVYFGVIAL

Target: Flag-TNFα (UniProt P06804)
Experiment: affinity purification with mass spectrometry; TNF-RSC from Senp1-WT and Senp1-KD MEFs treated with Flag-TNFα (100 ng/ml, 5 min), isolated on anti-Flag beads, trypsin-digested on beads, duplicates; only the target purified

binding: binds
B1: A20 (protein, UniProt Q60769 1-775)
chain: MAEQLLPQALYLSNMRKAVKIRERTPEDIFKPTNGIIYHFKTMHRYTLEMFRTCQFCPQFREIIHKALIDRSVQASLESQKKLNWCREVRKLVALKTNGDGNCLMHAACQYMWGVQDTDLVLRKALCSTLKETDTRNFKFRWQLESLKSQEFVETGLCYDTRNWNDEWDNLVKMASADTPAARSGLQYNSLEEIHIFVLSNILRRPIIVISDKMLRSLESGSNFAPLKVGGIYLPLHWPAQECYRYPIVLGYDSQHFVPLVTLKDSGPELRAVPLVNRDRGRFEDLKVHFLTDPENEMKEKLLKEYLIVMEIPVQGWDHGTTHLINAAKLDEANLPKEINLVDDYFELVQHEYKKWQENSDQARRAAHAQNPLEPSTPQLSLMDIKCETPNCPFFMSVNTQPLCHECSERRQKNQSKLPKLNSKLGPEGLPGVGLGSSNWSPEETAGGPHSAPPTAPSLFLFSETTAMKCRSPGCPFTLNVQHNGFCERCHARQINASHTADPGKCQACLQDVTRTFNGICSTCFKRTTAEPSSSLTSSIPASCHQRSKSDPSQLIQSLTPHSCHRTGNVSPSGCLSQAARTPGDRAGTSKCRKAGCMYFGTPENKGFCTLCFIEYRENKQSVTASEKAGSPAPRFQNNVPCLGRECGTLGSTMFEGYCQKCFIEAQNQRFHEARRTEEQLRSSQHRDMPRTTQVASRLKCARASCKNILACRSEELCMECQHLSQRVGSVAHRGEPTPEEPPKQRCRAPACDHFGNAKCNGYCNECYQFKQMYG
